This assay deals with A-kinase anchoring protein 2 (AKAP2) (rat (endogenous in rat heart and rat NVMs)) (UniProt Q5U301). As to the kind of experiment: affinity purification with mass spectrometry; endogenous AKAP2 immunoprecipitated from 40 mg of rat heart proteins with 22 µg anti-AKAP2 or control antibodies, protein-G sepharose; lysis in buffer A (20 mM Tris-HCl pH 7.4, 150 mM NaCl, 1% Triton X-100, 0.1% sodium deoxycholate); washes with buffer A containing 300 mM NaCl; shotgun LC-MS/MS.

The chains behind the UniProt entries cited, without tags or fusion partners.
UniProt Q5U301: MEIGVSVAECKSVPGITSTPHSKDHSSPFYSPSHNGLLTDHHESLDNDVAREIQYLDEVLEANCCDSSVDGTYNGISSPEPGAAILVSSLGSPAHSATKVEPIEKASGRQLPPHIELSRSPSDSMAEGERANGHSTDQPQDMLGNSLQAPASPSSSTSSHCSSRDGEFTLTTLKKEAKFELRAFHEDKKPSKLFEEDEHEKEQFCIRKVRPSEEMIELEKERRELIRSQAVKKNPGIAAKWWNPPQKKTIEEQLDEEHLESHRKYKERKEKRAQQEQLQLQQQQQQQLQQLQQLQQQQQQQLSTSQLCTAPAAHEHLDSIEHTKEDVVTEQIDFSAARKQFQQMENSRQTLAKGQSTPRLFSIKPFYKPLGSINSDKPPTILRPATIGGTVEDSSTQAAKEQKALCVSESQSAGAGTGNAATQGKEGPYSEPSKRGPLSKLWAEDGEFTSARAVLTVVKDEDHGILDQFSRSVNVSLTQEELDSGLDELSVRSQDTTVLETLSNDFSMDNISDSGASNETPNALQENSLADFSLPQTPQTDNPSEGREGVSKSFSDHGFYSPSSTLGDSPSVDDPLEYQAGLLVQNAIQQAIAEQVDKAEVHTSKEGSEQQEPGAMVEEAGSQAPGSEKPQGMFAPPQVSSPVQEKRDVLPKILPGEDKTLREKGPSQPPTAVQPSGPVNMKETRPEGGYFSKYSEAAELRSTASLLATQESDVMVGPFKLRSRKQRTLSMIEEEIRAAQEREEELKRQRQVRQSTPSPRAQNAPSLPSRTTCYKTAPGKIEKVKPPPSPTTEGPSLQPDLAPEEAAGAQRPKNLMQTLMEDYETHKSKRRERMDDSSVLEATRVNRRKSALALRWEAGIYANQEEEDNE

Results are given in words; binding and its absence hold for the method and conditions named. In cells and extracts the contact can be indirect. These calls come from enrichment with a bait or labelling near it, and not all partners need be listed.

Here are results for one molecule from paper PMC8616452.

B1: nucleoporin 35 (NUP35) (protein, UniProt Q68FY1 1-325)
chain: MAAFAVDPQAPTLGSEPMMLGSPTSPKPGANAQFLPGFLMGDLPAPVTPQPRSISGPSVGVMEMRSPLLAGGSPPQPVVPAHKDKSGAPPVRSIYDDISSPGLGSTPLPSRRQANISVLQSPLVGVTTPVTGQSMFSPANIGQPRKTTLSPAQLDPFYTQGDSLTSEDHLDDTWVTVFGFPQASASYILLQFAQYGNILKHVMSNTGNWMHIRYQSKLQARKALSKDGRIFGESIMIGVKPCIDKNVMENSDRGVLSSPSLAFTPPIRTLGTPTQPGSTPRVSTMRPLATAYKASTSDYQVISDRQTPKKDESLVSRAMEYMFGW
As to B1, the binding result is “binds”.
